Data on one substance can be found in paper PMC4594993.

The assay deals with T1, Flotillin-1-eGFP (human) (UniProt O75955).
T1 sequence: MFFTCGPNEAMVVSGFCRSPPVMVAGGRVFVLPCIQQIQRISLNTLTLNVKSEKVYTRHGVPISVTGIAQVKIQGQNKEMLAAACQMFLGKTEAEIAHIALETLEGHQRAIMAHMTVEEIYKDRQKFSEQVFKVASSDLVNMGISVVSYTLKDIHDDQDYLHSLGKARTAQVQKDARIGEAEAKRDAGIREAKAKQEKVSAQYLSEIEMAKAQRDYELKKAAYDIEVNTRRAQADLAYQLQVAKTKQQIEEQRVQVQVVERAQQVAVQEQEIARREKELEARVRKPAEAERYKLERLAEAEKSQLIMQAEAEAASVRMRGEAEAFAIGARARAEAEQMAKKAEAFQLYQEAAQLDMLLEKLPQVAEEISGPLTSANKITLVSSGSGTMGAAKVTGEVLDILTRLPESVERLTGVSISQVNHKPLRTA
Briefly: FRET or BRET; FRET imaging in SMMC-7721 cells co-transfected with acceptor (CD147-dsRed1) and donor (Flotillin-1-eGFP); CoA and CoB from single-transfected donor and acceptor samples.

Results are given in words; binding and its absence hold for the method and conditions named. Binding seen in cells or lysates may run through a third protein. Some binding calls cover weakened binding; strength is not graded here. Where a sequence is shown, tags or fusion partners need not be part of it.

For the substance “CD98 (FRET partner of flotillin-1-eGFP) (from UniProt P08195-1 1-630)”, the binding result is “binds”.
